All values are in %. The record does not define 0% and 100%; most values in the screen are far below 50% and negative numbers occur (in some assays of this library far below -100). This is an unselected part of the compounds tested.

Chains of the proteins cited; added tags and fusions are not shown.
UniProt E9BF75, entry or part of it: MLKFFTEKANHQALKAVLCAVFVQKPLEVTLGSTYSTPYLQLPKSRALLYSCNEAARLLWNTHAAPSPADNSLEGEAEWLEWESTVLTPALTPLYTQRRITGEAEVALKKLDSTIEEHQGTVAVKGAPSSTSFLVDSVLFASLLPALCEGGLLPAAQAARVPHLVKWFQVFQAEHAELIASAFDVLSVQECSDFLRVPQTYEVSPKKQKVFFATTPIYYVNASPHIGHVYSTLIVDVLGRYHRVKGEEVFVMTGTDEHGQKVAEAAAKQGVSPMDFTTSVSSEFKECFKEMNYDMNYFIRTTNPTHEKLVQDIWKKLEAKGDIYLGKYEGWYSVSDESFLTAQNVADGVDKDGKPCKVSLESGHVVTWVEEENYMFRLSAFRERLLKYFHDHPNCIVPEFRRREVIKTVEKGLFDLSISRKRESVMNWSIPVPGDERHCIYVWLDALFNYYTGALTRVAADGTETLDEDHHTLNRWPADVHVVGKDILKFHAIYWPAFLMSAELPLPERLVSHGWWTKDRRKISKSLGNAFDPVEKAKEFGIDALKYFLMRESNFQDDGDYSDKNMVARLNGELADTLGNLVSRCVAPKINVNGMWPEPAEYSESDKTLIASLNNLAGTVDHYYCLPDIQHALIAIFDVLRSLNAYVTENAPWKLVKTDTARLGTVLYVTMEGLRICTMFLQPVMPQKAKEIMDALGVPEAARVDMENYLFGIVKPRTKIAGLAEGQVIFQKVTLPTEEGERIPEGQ

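Methionyl-tRNA synthetase (putative), Leishmania donovani (UniProt E9BF75). Primary screen of methionyl-tRNA synthetase; the read-out is not stated. The test concentration is not given. Values are per cent inhibition. About 68,000 compounds were tested under these conditions; 0.035% (about 24) showed 50% or more at least once.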

| compound | inhibition |
|---|---|
| `CCn1nc(C)c(C(=O)N2C[C@@H](CN(C)C)[C@@H](CO)C2)c1C` | 10.79% |
| `COc1cc(N2CC[C@@H](O)[C@@H]2Cc2ccncc2)ncn1` | 6% |
| `Cc1ncsc1CCN(C)C(=O)CN1CC2(CCCC2)CC1=O` | 13.4% |
| `CC[C@H](CO)NC(=O)c1coc(COc2ccccc2F)n1` | 5.882% |
| `Cc1cccc(N2CCN(CCS(=O)(=O)c3ccc(Br)cc3)CC2)c1C` | 6.859% |
| `Cn1ccc(C(=O)N2C[C@@H]3CCN(c4cccnc4)C[C@@H]3C2)n1` | 10.64% |
| `Cc1ccccc1CSc1ncccc1C(=O)N(C)C` | 12.5% |
| `Cn1ccc2ccc(C(=O)N3CCN(C(=O)N4CCOCC4)CC3)cc21` | 5.185% |
| `COCCCN1CC2(CCN(C(=O)c3ncc(F)cc3F)CC2)CC1=O` | 11.43% |
| `COc1ccc(-c2csc3c2c(N)nc(=O)n3CC(N)=O)cc1` | 14.24% |
| `Cc1cccc(C2CCCN(C(=O)c3ccncc3)C2)n1` (stereo not drawn) | 17.51% |
| `CN1CC(C(=O)NC(C)(C)CNC(=O)OC(C)(C)C)CC1=O` (stereo not drawn) | 3.559% |
| `Cc1c(NC(=O)NC(C)CCO)cccc1OC1CCCC1` (stereo not drawn) | 15.92% |
| `CCOCCCNC(=O)Cc1cccs1` | 14.32% |
| `COc1cc(Cl)c(C)cc1-n1nnc(C(=O)O)c1C` | 12.42% |
| `Cc1nc(C)n(CC2CCCN2Cc2nc3ccccc3n2C)n1` (stereo not drawn) | 12.59% |
| `c1cnc(N2CCO[C@H]3[C@H](OCC4CC4)CC[C@@H]32)nc1` | 15.58% |
| `CC(=O)N1CC[C@H]2N(C)CC[C@@]2(C(=O)Nc2cccnc2)CC1` | 15.58% |
| `CCn1ncc2c1CCCC2NCC1=Cc2ccccc2OC1` (stereo not drawn) | 15.28% |
| `Cc1cc(C(=O)N2CCCC(C(=O)c3nccn3C)C2)c(=O)[nH]c1C` (stereo not drawn) | -1.25% |
| `CS(=O)(=O)c1ccc(CNC[C@H]2COCc3nc4ccccc4n32)cc1` | 12.09% |
| `CSCCCN1CCC(c2nnc(Cn3ccnc3)n2C2CC2)CC1` | 5.455% |
| `CCN(CC)C(=O)[C@@H]1C[C@@H](N)CN1c1nc(N2CCCC2)nc(C)c1C` | 8.741% |
| `CC(C)CNC1(Cc2cc(-c3ccccc3)on2)COC1` | 9.831% |
| `CCN(C)CC(=O)N1CCc2nc(NC)nc(C(=O)N3CCCC3)c2C1` | 14.72% |
| `Cc1ccoc1C(=O)N1C[C@@H](OCC2CCOCC2)[C@H]2OCCC[C@H]21` | 12.5% |
| `CC(C)NC(=O)CCN1CCC(C(=O)c2cc(F)ccc2F)CC1` | 13.54% |
| `O=C1NCCN(Cc2ccoc2)C1CC(=O)N1CCc2sccc2C1` (stereo not drawn) | 14.89% |
| `COCc1nc(CNC2CCCC(C)(C)C2)no1` (stereo not drawn) | 10.23% |
| `O=C1c2cnc(N3CCC(O)CC3)nc2CN1Cc1cccc(F)c1` | 15.47% |
| `CNC(=O)C(CC(C)C)NC(=O)c1cccc(-c2n[nH]c(C)n2)c1` (stereo not drawn) | 12.22% |
| `CN(C)S(=O)(=O)N1CC[C@]2(C[C@H](Oc3cccnc3)CO2)C1` | 3.863% |
| `CCc1c(C(=O)NCC2CCS(=O)(=O)C2)cnn1-c1ccccc1` (stereo not drawn) | 10.84% |
| `CN(C)C(CNC(=O)N(Cc1ccco1)C1CC1)c1cccs1` (stereo not drawn) | 6.738% |
| `Nc1nnc(SCc2cc(=O)n3c4c(sc3n2)CCCC4)s1` | 15.25% |
| `Cc1occc1C(=O)N1CCCN(Cc2nccn2C)CC1` | 15.36% |
| `CCC(C)(CNC(=O)Nc1nncs1)N1CCOCC1` (stereo not drawn) | 13.31% |
| `CC(NC(=O)NCC1(N2CCCCC2)CCCCC1)c1nncn1C` (stereo not drawn) | 11.02% |
| `Cc1ccc(NC(=O)CNC(C)CN2CCOCC2)c(F)c1` (stereo not drawn) | 5.385% |
| `Cc1ccc(O)c(C(=O)NCCS(=O)(=O)Cc2ccccc2)c1` | 3.621% |
| `CCCOc1ccccc1CN[C@@H]1CCC[C@H]1Cc1cc(C)no1` | 11.53% |
| `CCOc1cccc(CNC2CCCN(Cc3noc(C)n3)C2)c1` (stereo not drawn) | 21.94% |
| `Cc1nc(Oc2ccccc2Cl)sc1C(=O)O` | 13.82% |
| `CCc1cc(N2CCCC(c3noc(CC)n3)C2)ncn1` (stereo not drawn) | -5.344% |
| `Cc1ccc(CN2CCC3(CC2)COCCN3S(C)(=O)=O)o1` | 14.75% |
| `Cc1nc(CNC(=O)CCN2CCN(c3ccccn3)CC2)oc1C` | 2.902% |
| `CC(C)Nc1ncccc1C(=O)NCc1ncc[nH]1` | 13.71% |
| `CC(C)N1CCCC(C(=O)N2CCN(c3cnn(C)c(=O)c3)CC2)C1` (stereo not drawn) | -5.455% |

The values are deposited in ChEMBL (CHEMBL3988442, “University of Dundee, Small-Polar-MMV Screening Library” (2021)).